PubChem BioAssay AID1053208, Peter MacCallum Cancer Centre – 2014
Shown is an unselected part of about 17,000 deposited reagents. In the full data, 788 (4.7%) got an active call. 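Calls rest on z-score classes alone; an extra cut-off of viability at most 70% of control was not applied to them.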 Some reagents were tested in more than one well and are listed for each. Further read-outs or replicates are left out here. Reagent sequences are not shown.

- Purpose: 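Synthetic lethal interactions between gene loss and doxorubicin in osteosarcoma cells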 (primary screen)
- System: mouse osteosarcoma cells, early-passage culture from an engineered mouse model of fibroblastic bone tumour
- Reagent: siRNA pool against mouse genes, 40 nM
- Timing: about 120 h (48 h before drug, then 72 h with drug)
- Treatment: doxorubicin 100 nM for 72 h, roughly 30-40% inhibitory dose
- Measured: 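Luminescent ATP signal taken as viability with or without 100 nM doxorubicin for 72 h; mean of two wells set against non-targeting siRNA and turned into robust z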
- Scale: viability z-score with doxorubicin: higher = more viable cells under doxorubicin; viability z-score without drug: higher = more viable cells with knock-down alone
- Hit rule: 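a pool counts as active when its viability z-score with doxorubicin is -2 or below and its z-score without drug lies between -2 and 2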

For Zfp944 (zinc finger protein 944), what was measured?
combined z-score class: no change with or without drug; viability z-score with doxorubicin: 0.67; viability z-score without drug: -0.34; Outcome: inactive

What did the screen give for Ybey (ybeY metallopeptidase)?
combined z-score class: no change with or without drug; viability z-score with doxorubicin: -1.46; viability z-score without drug: -1.18; Outcome: inactive

What is on record for Traf3 (TNF receptor-associated factor 3)?
combined z-score class: no change with or without drug; viability z-score with doxorubicin: -1.12; viability z-score without drug: 0; Outcome: inactive

Which result is listed for Spg21 (SPG21, maspardin)?
combined z-score class: no change with or without drug; viability z-score with doxorubicin: 0.67; viability z-score without drug: 0.34; Outcome: inactive

With Ppan (peter pan homolog), how do the results read?
combined z-score class: no change with or without drug; viability z-score with doxorubicin: 1.46; viability z-score without drug: 1.01; Outcome: inactive

For Phb1 (prohibitin 1), how do the results read?
combined z-score class: low cell count with doxorubicin only; viability z-score with doxorubicin: -2.14; viability z-score without drug: -1.85; Outcome: active

What did the screen give for Phkb (phosphorylase kinase beta)?
combined z-score class: no change with or without drug; viability z-score with doxorubicin: -0.11; viability z-score without drug: 0; Outcome: inactive

Which result is listed for Aplp2 (amyloid beta precursor-like protein 2)?
combined z-score class: no change with or without drug; viability z-score with doxorubicin: -0.9; viability z-score without drug: -0.34; Outcome: inactive

What did the screen give for Rplp1 (ribosomal protein lateral stalk subunit P1)?
combined z-score class: low cell count with and without drug; viability z-score with doxorubicin: -4.95; viability z-score without drug: -6.41; Outcome: inactive

What is on record for Gfus (GDP-L-fucose synthase)?
combined z-score class: no change with or without drug; viability z-score with doxorubicin: -1.69; viability z-score without drug: -0.17; Outcome: inactive

How did the screen score Eloa (elongin A)?
combined z-score class: high cell count without drug only; viability z-score with doxorubicin: 0.22; viability z-score without drug: 2.87; Outcome: inactive

With Cinp (cyclin dependent kinase 2 interacting protein), how do the results read?
combined z-score class: no change with or without drug; viability z-score with doxorubicin: -1.12; viability z-score without drug: -0.84; Outcome: inactive

Which result is listed for Cinp (cyclin dependent kinase 2 interacting protein)?
combined z-score class: no change with or without drug; viability z-score with doxorubicin: 0.22; viability z-score without drug: -0.17; Outcome: inactive

Which result is listed for Slc25a19?
combined z-score class: no change with or without drug; viability z-score with doxorubicin: -0.67; viability z-score without drug: 0.84; Outcome: inactive

With Shpk (sedoheptulokinase), how do the results read?
combined z-score class: no change with or without drug; viability z-score with doxorubicin: 0; viability z-score without drug: 0.51; Outcome: inactive

What did the screen give for Ppm1j (protein phosphatase 1J)?
combined z-score class: no change with or without drug; viability z-score with doxorubicin: 1.69; viability z-score without drug: 0.17; Outcome: inactive

Which result is listed for Igfbp7 (insulin-like growth factor binding protein 7)?
combined z-score class: no change with or without drug; viability z-score with doxorubicin: 0.11; viability z-score without drug: -0.17; Outcome: inactive

How did the screen score Ppil3 (peptidylprolyl isomerase (cyclophilin)-like 3)?
combined z-score class: no change with or without drug; viability z-score with doxorubicin: 1.57; viability z-score without drug: 0.51; Outcome: inactive

Which result is listed for Slc1a6?
combined z-score class: no change with or without drug; viability z-score with doxorubicin: -1.35; viability z-score without drug: -1.18; Outcome: inactive
